Reference: patent US20160046678A1 (ZYNGENIA, published 2016)
These are yes or no findings as the source states them, for the method shown. Some binding calls cover weakened binding; strength is not graded here.

By UniProt entry, the sequences of proteins in these tests, tags left out. Residues count along the entry.
UniProt P08069, residues 31-932: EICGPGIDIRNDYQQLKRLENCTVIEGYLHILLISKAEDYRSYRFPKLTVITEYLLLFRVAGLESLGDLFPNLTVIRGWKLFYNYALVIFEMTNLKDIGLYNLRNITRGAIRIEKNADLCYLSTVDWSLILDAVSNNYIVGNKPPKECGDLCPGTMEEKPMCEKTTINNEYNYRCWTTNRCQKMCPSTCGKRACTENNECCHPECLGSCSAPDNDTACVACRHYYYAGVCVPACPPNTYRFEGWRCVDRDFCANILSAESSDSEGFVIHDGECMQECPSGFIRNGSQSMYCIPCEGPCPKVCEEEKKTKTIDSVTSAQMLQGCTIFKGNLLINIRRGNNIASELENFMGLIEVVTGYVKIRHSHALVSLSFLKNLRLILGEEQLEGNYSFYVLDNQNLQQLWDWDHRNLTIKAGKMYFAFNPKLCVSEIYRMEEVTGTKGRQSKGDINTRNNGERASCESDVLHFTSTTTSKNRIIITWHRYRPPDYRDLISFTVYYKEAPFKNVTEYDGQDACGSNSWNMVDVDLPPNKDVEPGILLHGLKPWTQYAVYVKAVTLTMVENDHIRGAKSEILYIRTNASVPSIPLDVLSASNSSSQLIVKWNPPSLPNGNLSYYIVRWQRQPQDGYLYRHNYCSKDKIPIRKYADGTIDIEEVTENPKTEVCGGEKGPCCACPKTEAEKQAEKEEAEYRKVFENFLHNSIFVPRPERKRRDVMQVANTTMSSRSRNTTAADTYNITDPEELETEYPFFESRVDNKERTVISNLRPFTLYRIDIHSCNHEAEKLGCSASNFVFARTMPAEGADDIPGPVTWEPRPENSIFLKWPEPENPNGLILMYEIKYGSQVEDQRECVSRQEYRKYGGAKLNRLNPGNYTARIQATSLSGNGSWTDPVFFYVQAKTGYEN

B1: IGF331 (peptide)
peptide: VPSLCMEFPELCFTTE
B2: IGF332 (peptide)
peptide: VPLLCLEFAELCFHVE
B3: IGF334 (peptide)
peptide: AMRLCNEFHELCFGVV
B4: IGF335 (peptide)
peptide: EERLCKEFPELCFMMT
B5: IGF336 (peptide)
peptide: TPSLCREFTELCFDSD
B6: IGF337 (peptide)
peptide: VHPLCMEFTELCFHLR
B7: IGF338 (peptide)
peptide: AGALCKEFPILCFTME
B8: IGF339 (peptide)
peptide: EHPLCREFSELCFGMG
B9: IGF340 (peptide)
peptide: SSSLCLEFSELCFHDD
B10: IGF341 (peptide)
peptide: ALRLCNEFPELCFGGT
B11: IGF343 (peptide)
peptide: IPLLCLEFPVLCFENE
B12: IGF344 (peptide)
peptide: APLLCLEFPELCFGWD
B13: IGF345 (peptide)
peptide: PALLCQEFAELCFDMP
B14: IGF346 (peptide)
peptide: YLHLCREFTELCFDEG
B15: IGF347 (peptide)
peptide: AHWLCLEFKELCFGND
B16: IGF348 (peptide)
peptide: VPSLCFEFEELCFDWS
B17: IGF349 (peptide)
peptide: VPSLCLEFQELCFTTE
B18: IGF350 (peptide)
peptide: PHPLCLEFPELCFGAE
B19: IGF351 (peptide)
peptide: DSRLCAEFPELCFEDV
B20: IGF352 (peptide)
peptide: AATLCLEFSELCFDMS
B21: IGF353 (peptide)
peptide: IPHLCKEFPELCFEQR
B22: IGF354 (peptide)
peptide: SYLLCREFSELCFDKT
B23: IGF355 (peptide)
peptide: VPYLCLEFAELCFQVD
B24: IGF356 (peptide)
peptide: VPPLCVEFSELCFDAP
B25: IGF357 (peptide)
peptide: MELLCFEFSELCFGSH
B26: IGF358 (peptide)
peptide: TVALCKEFPELCFDIV
B27: IGF359 (peptide)
peptide: DPYLCLEFEELCFRFV
B28: IGF360 (peptide)
peptide: TPALCLEFAELCFEDS
B29: IGF361 (peptide)
peptide: RHPLCVEFPELCFVDY
B30: IGF362 (peptide)
peptide: VHPLCIEFPALCFDTR
B31: IGF363 (peptide)
peptide: YLALCYEFRELCFGDQ
B32: IGF364 (peptide)
peptide: APLLCLEFPELCFEDI
B33: IGF365 (peptide)
peptide: VHYLCLEFQELCFDEL
B34: IGF366 (peptide)
peptide: RPSLCLEFRELCFDTL
B35: IGF367 (peptide)
peptide: APSLCWEFKELCFDSE
B36: IGF369 (peptide)
peptide: AHALCLEFSELCFDVT
B37: IGF370 (peptide)
peptide: TQYLCIEFAELCFDTI
B38: IGF371 (peptide)
peptide: AGALCREFAELCFHNH
B39: IGF372 (peptide)
peptide: TPPLCFEFPELCFHLS
B40: IGF373 (peptide)
peptide: SERLCLEFAELCFGHG
B41: IGF374 (peptide)
peptide: AHWLCLEFPELCFDKL
B42: IGF375 (peptide)
peptide: DLHLCREFSELCFSSP
B43: IGF376 (peptide)
peptide: TPSLCLEFPELCFHGT
B44: IGF377 (peptide)
peptide: APSLCLEFRELCFEDY
B45: IGF378 (peptide)
peptide: VPSLCLEFADLCFHDI
B46: IGF379 (peptide)
peptide: MPALCLEFRELCFEDP
B47: IGF380 (peptide)
peptide: YMRLCYEFSELCFHAS
B48: IGF381 (peptide)
peptide: APSLCTEFRELCFDII
B49: IGF382 (peptide)
peptide: VPPLCLEFAELCFYAD
B50: IGF384 (peptide)
peptide: TPSLCVEFRELCFDDL
B51: IGF385 (peptide)
peptide: QEALCIEFHELCFEEY
B52: IGF386 (peptide)
peptide: ADRLCREFSELCFDVV
B53: IGF387 (peptide)
peptide: AHPLCLEFPVLCFDDE
B54: IGF388 (peptide)
peptide: RPVLCIEFPELCFNET
B55: IGF389 (peptide)
peptide: DVKLCQEFPELCFESY
B56: IGF390 (peptide)
peptide: VPALCFEFAELCFHIE
B57: IGF391 (peptide)
peptide: AYALCHEFQELCFETT
B58: IGF392 (peptide)
peptide: AALLCHEFTELCFLEA
B59: IGF393 (peptide)
peptide: QHLLCIEFNELCFNDV
B60: IGF394 (peptide)
peptide: IPPLCLEFWELCFDAP
B61: IGF395 (peptide)
peptide: AHRLCMEFAELCFGNA
B62: IGF396 (peptide)
peptide: RPSLCQEFVELCFEEA
B63: IGF397 (peptide)
peptide: PHRLCIEFPELCFDVV
B64: IGF398 (peptide)
peptide: AQALCLEFMELCFDVR
B65: IGF399 (peptide)
peptide: ADALCAEFKELCFNIK
B66: IGF400 (peptide)
peptide: GHKLCTEFIELCFDVN
B67: IGF401 (peptide)
peptide: DEQLCLEFVELCFEQT
B68: IGF402 (peptide)
peptide: VYALCREFSELCFYGN
B69: IGF404 (peptide)
peptide: AGALCAEFPELCFGGT
B70: IGF405 (peptide)
peptide: PPSLCLEFPELCFHRS
B71: IGF406 (peptide)
peptide: IPALCIEFSELCFWPS

These binders were tested against IGF1R (UniProt P08069) (assay: MRD identification, Example 48).

Q: Which binding does the source give for B1 here?
A: binds

Q: Which binding does the source give for B2 here?
A: binds

Q: B3 was tested. Which binding did it give?
A: binds

Q: With B4 as the binder, how does the binding read?
A: binds

Q: B5 was tested. Which binding did it give?
A: binds

Q: Which binding does the source give for B6 here?
A: binds

Q: How did the binding turn out when B7 was run?
A: binds

Q: Which binding does the source give for B8 here?
A: binds

Q: How did the binding turn out when B9 was run?
A: binds

Q: With B10 as the binder, how does the binding read?
A: binds

Q: B11 was tested. Which binding did it give?
A: binds

Q: Which binding does the source give for B12 here?
A: binds

Q: Which binding does the source give for B13 here?
A: binds

Q: With B14 as the binder, how does the binding read?
A: binds

Q: With B15 as the binder, how does the binding read?
A: binds

Q: With B16 as the binder, how does the binding read?
A: binds

Q: Which binding does the source give for B17 here?
A: binds

Q: B18 was tested. Which binding did it give?
A: binds

Q: How did the binding turn out when B19 was run?
A: binds

Q: Which binding does the source give for B20 here?
A: binds

Q: B21 was tested. Which binding did it give?
A: binds

Q: How did the binding turn out when B22 was run?
A: binds

Q: With B23 as the binder, how does the binding read?
A: binds

Q: Which binding does the source give for B24 here?
A: binds

Q: B25 was tested. Which binding did it give?
A: binds

Q: B26 was tested. Which binding did it give?
A: binds

Q: Which binding does the source give for B27 here?
A: binds

Q: For B28, which binding is on record?
A: binds

Q: How did the binding turn out when B29 was run?
A: binds

Q: How did the binding turn out when B30 was run?
A: binds

Q: How did the binding turn out when B31 was run?
A: binds

Q: With B32 as the binder, how does the binding read?
A: binds

Q: B33 was tested. Which binding did it give?
A: binds

Q: B34 was tested. Which binding did it give?
A: binds

Q: Which binding does the source give for B35 here?
A: binds

Q: B36 was tested. Which binding did it give?
A: binds

Q: For B37, which binding is on record?
A: binds

Q: Which binding does the source give for B38 here?
A: binds

Q: Which binding does the source give for B39 here?
A: binds

Q: B40 was tested. Which binding did it give?
A: binds

Q: B41 was tested. Which binding did it give?
A: binds

Q: B42 was tested. Which binding did it give?
A: binds

Q: How did the binding turn out when B43 was run?
A: binds

Q: B44 was tested. Which binding did it give?
A: binds

Q: Which binding does the source give for B45 here?
A: binds

Q: For B46, which binding is on record?
A: binds

Q: With B47 as the binder, how does the binding read?
A: binds

Q: Which binding does the source give for B48 here?
A: binds

Q: With B49 as the binder, how does the binding read?
A: binds

Q: Which binding does the source give for B50 here?
A: binds

Q: Which binding does the source give for B51 here?
A: binds

Q: For B52, which binding is on record?
A: binds

Q: With B53 as the binder, how does the binding read?
A: binds

Q: B54 was tested. Which binding did it give?
A: binds

Q: With B55 as the binder, how does the binding read?
A: binds

Q: Which binding does the source give for B56 here?
A: binds

Q: How did the binding turn out when B57 was run?
A: binds

Q: For B58, which binding is on record?
A: binds

Q: How did the binding turn out when B59 was run?
A: binds

Q: With B60 as the binder, how does the binding read?
A: binds

Q: With B61 as the binder, how does the binding read?
A: binds

Q: How did the binding turn out when B62 was run?
A: binds

Q: B63 was tested. Which binding did it give?
A: binds

Q: With B64 as the binder, how does the binding read?
A: binds

Q: For B65, which binding is on record?
A: binds

Q: Which binding does the source give for B66 here?
A: binds

Q: For B67, which binding is on record?
A: binds

Q: For B68, which binding is on record?
A: binds

Q: B69 was tested. Which binding did it give?
A: binds

Q: With B70 as the binder, how does the binding read?
A: binds

Q: Which binding does the source give for B71 here?
A: binds
